Laboratory results: article PMC8855804
These are yes or no findings as the source states them, for the method shown. For part of these data: Binding seen in cells or lysates may run through a third protein. Some results given as binding are weak or reduced against the parent protein; the word gives no strength.

T1: intracellular domain of human ADAM8 (human) (UniProt P78325)
T1 sequence: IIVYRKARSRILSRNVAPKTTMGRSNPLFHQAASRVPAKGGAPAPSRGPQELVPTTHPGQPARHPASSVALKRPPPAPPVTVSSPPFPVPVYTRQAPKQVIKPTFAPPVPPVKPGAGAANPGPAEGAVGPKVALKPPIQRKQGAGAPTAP

T2: ADAM8 (metalloproteinase-disintegrin 8), endogenous (human (endogenous in hPMN and HL-60)) (UniProt P78325)
T2 sequence: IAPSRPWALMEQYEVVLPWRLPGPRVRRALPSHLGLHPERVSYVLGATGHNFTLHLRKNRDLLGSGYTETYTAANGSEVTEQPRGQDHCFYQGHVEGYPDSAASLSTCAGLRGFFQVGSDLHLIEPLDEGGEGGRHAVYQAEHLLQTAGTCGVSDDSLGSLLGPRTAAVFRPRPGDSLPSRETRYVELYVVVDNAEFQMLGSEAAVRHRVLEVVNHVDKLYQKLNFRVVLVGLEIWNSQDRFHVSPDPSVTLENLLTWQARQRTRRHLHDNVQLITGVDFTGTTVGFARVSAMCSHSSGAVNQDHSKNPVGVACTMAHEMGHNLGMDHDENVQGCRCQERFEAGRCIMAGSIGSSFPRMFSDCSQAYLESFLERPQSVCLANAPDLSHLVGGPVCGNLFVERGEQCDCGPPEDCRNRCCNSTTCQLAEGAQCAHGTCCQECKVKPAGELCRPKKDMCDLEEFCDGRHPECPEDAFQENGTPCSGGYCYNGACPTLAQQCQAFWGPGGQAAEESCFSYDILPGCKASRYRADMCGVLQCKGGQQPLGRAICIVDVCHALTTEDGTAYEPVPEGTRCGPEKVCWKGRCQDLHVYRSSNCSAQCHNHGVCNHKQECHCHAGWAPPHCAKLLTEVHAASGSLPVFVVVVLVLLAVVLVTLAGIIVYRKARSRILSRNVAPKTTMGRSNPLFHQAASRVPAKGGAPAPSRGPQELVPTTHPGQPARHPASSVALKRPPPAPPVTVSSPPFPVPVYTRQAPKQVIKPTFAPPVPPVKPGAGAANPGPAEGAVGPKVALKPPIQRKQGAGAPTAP

B1: Myo1f clone BP19 (SH3 domain, aa 1032-1098) (domain or fragment, UniProt O00160 1032-1098)
chain: VGRPKPQPRTHGPRCRALYQYVGQDVDELSFNVNEVIEILMEDPSGWWKGRLHGQEGLFPGNYVEKI
B2: Myosin1f, endogenous (protein, UniProt O00160 1-1098)
chain: MGSKERFHWQSHNVKQSGVDDMVLLPQITEDAIAANLRKRFMDDYIFTYIGSVLISVNPFKQMPYFTDREIDLYQGAAQYENPPHIYALTDNMYRNMLIDCENQCVIISGESGAGKTVAAKYIMGYISKVSGGGEKVQHVKDIILQSNPLLEAFGNAKTVRNNNSSRFGKYFEIQFSRGGEPDGGKISNFLLEKSRVVMQNENERNFHIYYQLLEGASQEQRQNLGLMTPDYYYYLNQSDTYQVDGTDDRSDFGETLSAMQVIGIPPSIQQLVLQLVAGILHLGNISFCEDGNYARVESVDLLAFPAYLLGIDSGRLQEKLTSRKMDSRWGGRSESINVTLNVEQAAYTRDALAKGLYARLFDFLVEAINRAMQKPQEEYSIGVLDIYGFEIFQKNGFEQFCINFVNEKLQQIFIELTLKAEQEEYVQEGIRWTPIQYFNNKVVCDLIENKLSPPGIMSVLDDVCATMHATGGGADQTLLQKLQAAVGTHEHFNSWSAGFVIHHYAGKVSYDVSGFCERNRDVLFSDLIELMQTSEQAFLRMLFPEKLDGDKKGRPSTAGSKIKKQANDLVATLMRCTPHYIRCIKPNETKRPRDWEENRVKHQVEYLGLKENIRVRRAGFAYRRQFAKFLQRYAILTPETWPRWRGDERQGVQHLLRAVNMEPDQYQMGSTKVFVKNPESLFLLEEVRERKFDGFARTIQKAWRRHVAVRKYEEMREEASNILLNKKERRRNSINRNFVGDYLGLEERPELRQFLGKRERVDFADSVTKYDRRFKPIKRDLILTPKCVYVIGREKVKKGPEKGQVCEVLKKKVDIQALRGVSLSTRQDDFFILQEDAADSFLESVFKTEFVSLLCKRFEEATRRPLPLTFSDTLQFRVKKEGWGGGGTRSVTFSRGFGDLAVLKVGGRTLTVSVGDGLPKSSKPTRKGMAKGKPRRSSQAPTRAAPAPPRGMDRNGVPPSARGGPLPLEIMSGGGTHRPPRGPPSTSLGASRRPRARPPSEHNTEFLNVPDQGMAGMQRKRSVGQRPVPGVGRPKPQPRTHGPRCRALYQYVGQDVDELSFNVNEVIEILMEDPSGWWKGRLHGQEGLFPGNYVEKI

Key:
[1] = target: T1, intracellular domain of human ADAM8 (human); assay: two-hybrid; yeast two-hybrid screen, ADAM8 intracellular domain against the Matchmaker human leukocyte cDNA library; yeast strains HF7c and SFY; beta-galactosidase filter assay
[2] = target: T2, ADAM8 (metalloproteinase-disintegrin 8), endogenous (human (endogenous in hPMN and HL-60)); assay: co-IP; HL-60 cells; polyclonal ADAM8 antibody coupled to magnetic beads, blot for Myo1f; controls: beads with control IgG, unconjugated beads
[3] = target: T2, ADAM8 (metalloproteinase-disintegrin 8), endogenous (human (endogenous in hPMN and HL-60)); assay: co-IP; activated human neutrophils (hPMN, stimulated with TNF-alpha); polyclonal ADAM8 antibody coupled to magnetic beads, blot for Myo1f; controls: beads with control IgG, unconjugated beads; also after preincubation with BK-1361 or control peptide, MAB1031, or a 2-aminoquinoline-based SH3 domain inhibitor

Binder | binding [1] | binding [2] | binding [3]
B1 | binds |  | 
B2 |  | binds | binds
